Screen size: about 330,000 compounds; about 7,700 (2.3%) were called active. The shares of active, inactive and inconclusive entries below differ from those in the screen. The call rests on the fitted dose curve; in most records, active means well fitted inhibition curve with a large enough effect; inconclusive means small, poorly fitted or top-dose-only effect, or effect the other way; inactive means flat fitted curve, though single readings scatter. Where the call is inconclusive, the potency comes from a doubtful curve fit.
Test: qHTS screen for small molecules that inhibit ELG1-dependent DNA repair in human embryonic kidney (HEK293T) cells expressing luciferase-tagged ELG1; further: nearly all actives have a fitted effect of over 55% in size
Conditions: HEK293T ELG1-luciferase reporter, luminescence, 16 h, DNA damage induced by 5-fluorouridine; activity change, negative = inhibition: at 46.1 µM (top of the series)
In short: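 Luminescence from the luciferase reporter, measured 30 min after ONE-Glo reagent at room temperature, was the read-out. Beforehand, 2,000 cells per well were exposed for 16 hr at 37 °C to 5-fluorouridine together with compound or vehicle.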
On the % scale 0 is the no-effect control and ±100 the full control effect; potency means the concentration at half of the fitted maximal effect.

Compound	Potency	activity change, negative = inhibition
CCOC(=O)/C=C1\CN(Cc2cc(OC)c(OC)c(OC)c2)S(=O)(=O)c2ccc(C(F)(F)F)cc21	inconclusive: 29.1 µM [inhibitor, single point]	–
CCn1cc(C(=O)NCc2ccc(Cl)cc2)c(=O)c2cc(S(=O)(=O)N3CCOCC3)ccc21	inconclusive: 14.6 µM [inhibitor, partial curve]	–
Cc1cc(NC(=O)CSc2nc3c([nH]c4ccccc43)c(=O)n2-c2ccccc2F)no1	active: 20.6 µM	–
CC1CC2(CCCCC2)Nc2ccc3ccccc3c21 (stereo unspecified)	–	inactive: -3.17%
O=C(Nc1cccc(O)c1)c1ccccc1	inconclusive: 11.6 µM [activator, partial curve]	–
N#CCCN(C(=O)CSc1nc2nc(-c3cccs3)cc(C(F)(F)F)c2c(=O)[nH]1)c1ccccc1	inconclusive: 29.1 µM [inhibitor, single point]	–
COc1ccc(N2CCN(C3CCCN(Cc4cccc(OC)c4)C3)CC2)cc1 (stereo unspecified)	–	inactive: -16.3%
Cn1nc(-c2ccccc2)c(COC(=O)c2cccc(Cl)c2)c1S(=O)(=O)c1ccccc1	inconclusive: 18.4 µM [inhibitor, single point]	–
O=C(O)C1CCN(c2nc(-c3ccccc3)nc3c2oc2ccccc23)CC1	–	inactive: -28.1%
CCOc1ccc2[nH]c3c(NCCc4ccc(OC)c(OC)c4)ncnc3c2c1	active: 20.6 µM	–
CCC(=O)NC(=S)Nc1ccc(NC(=O)CC)cc1	inconclusive: 23.1 µM [activator, single point]	–
CC(Oc1ccc(C(C)(C)C)cc1)C(=O)NCC(c1ccco1)N1CCCC1 (stereo unspecified)	–	inactive: 0.124%
COc1cccc(OCCNC(=O)CSc2ccc(C(F)(F)F)cc2[N+](=O)[O-])c1	–	inactive: 3.42%
CSCCC(=O)N1CC[C@@H](N2CCN(c3ccccc3F)CC2)[C@H](O)C1	–	inactive: -4.45%
CCOc1ccc(-c2nc(CSCC(=O)NCCCN3CCCC3=O)c(C)o2)cc1	inconclusive: 11.6 µM [activator, partial curve, poor fit]	–
N#CC1CC(c2ccccc2)Nc2cc(Cl)ccc2N1 (stereo unspecified)	inconclusive: 4.61 µM [activator, partial curve]	–
CN(C)/C=N/c1nc2nccc(-c3ccccc3)n2n1	inconclusive: 9.2 µM [activator, partial curve, poor fit]	–
O=C(Nc1cccnc1)C1(F)C(F)(F)C(F)(F)C(F)(F)C(F)(F)C1(F)F	–	inactive: -2.83%
CC(NC(=O)C1CCN(C(=O)Nc2ccccc2)CC1)c1ccccc1 (stereo unspecified)	–	inactive: 4.16%
Cc1cc(C)c2nc(C(F)(F)F)c(C#N)c(N)c2c1	inconclusive: 2.31 µM [inhibitor, full curve]	–
CC1CCN(C(=S)c2ccc(N(C)C)cc2)CC1	inconclusive: 23.1 µM [activator, single point]	–
Cc1cc(C(F)(F)F)nn1Cc1n[nH]c(=S)n1-c1cccc(Cl)c1	–	inactive: 14%
CCOC(=O)C1=C(C)NC(C)=C(C(=O)OCC)C1C(=O)OCC(=O)N(C)Cc1ccccc1	inconclusive: 18.3 µM [inhibitor, single point]	–
O=S(=O)(c1ccc(F)c(F)c1)N1CCN(c2ncccn2)CC1	–	inactive: -0.765%

Compound	Potency	activity change, negative = inhibition
O=C(c1ccc2[nH]c(=O)c(=O)[nH]c2c1)N1CCc2ccccc2C1	inconclusive: 9.2 µM [activator, partial curve]	–
Cc1cc(NC(=O)C(C)C)n(-c2nc3ccccc3s2)n1	–	inactive: 17.2%
Cc1ccnc(NC(=O)CCCOc2cc(=O)n(C)c3ccccc23)c1	inconclusive: 29.1 µM [inhibitor, single point]	–
COc1ccc(CN([C@H](C)CO)S(=O)(=O)N(Cc2ccccc2)[C@H](CO)C(C)C)cc1	–	inactive: -12.5%
COC(=O)c1ccc(NC(=O)COc2ccc(S(=O)(=O)NC(C)(C)C)cc2)cc1	inconclusive: 29.1 µM [activator, single point]	–
CCOc1cc(N2CCOCC2)c(OCC)cc1NC(=O)c1cc(S(=O)(=O)N2CCOCC2)ccc1F	inconclusive: 8.2 µM [inhibitor, single point]	–
Cc1oc2ccc(NS(=O)(=O)c3cccc4cccnc34)cc2c1C(=O)OC(C)C	inconclusive: 32.6 µM [inhibitor, partial curve, poor fit]	–
CCOC(=O)N1CCN(C(=O)CN(Cc2ccccc2)S(=O)(=O)c2ccc(OC)c(C)c2)CC1	inconclusive: 32.6 µM [inhibitor, partial curve, poor fit]	–
Brc1ccc(-c2cn3ccccc3n2)cc1	inconclusive: 1.03 µM [activator, full curve]	–
CC1(C)CC(=O)C2=C(C1)NC1=C(C(=O)c3ccccc31)C2c1cc([N+](=O)[O-])ccc1O (stereo unspecified)	inconclusive: 29.1 µM [activator, partial curve, poor fit]	–
c1nc(N2CCCCCC2)c2[nH]cnc2n1	inconclusive: 7.31 µM [inhibitor, partial curve, poor fit]	–
CC(=O)N1CCCc2ccccc21	inconclusive: 29.1 µM [activator, single point]	–
O=C(CSc1nnc(SCc2ccc(Cl)cc2)s1)N/N=C/c1ccccc1C(=O)O	–	inactive: 19.2%
COc1ccc(-n2c(=O)[nH]c3cc(C(=O)NCCc4ccc(Cl)cc4)ccc3c2=O)cc1OC	inconclusive: 20.6 µM [inhibitor, partial curve]	–
COc1ccc(Cl)cc1C(=O)Nc1cccc2ncccc12	–	inactive: -12.2%
COc1ccc(NC2=C3CC(C)CC=C3N(c3ccc(OC)cc3)C2=O)cc1 (stereo unspecified)	inconclusive: 18.3 µM [inhibitor, partial curve, poor fit]	–
N#CCC(=N)N1CCN(c2ccc(Cl)cc2)CC1	–	inactive: -1%
Oc1ccc(/C=N/Nc2ncnc3c2ncn3Cc2ccccc2)cc1O	inconclusive: 8.2 µM [activator, partial curve, poor fit]	–
CCOc1ccc(-n2ccnc(SCC(=O)NCc3cccc(OC)c3)c2=O)cc1	inconclusive: 18.3 µM [inhibitor, single point]	–
Fc1cccc(Cl)c1CNc1ccc(N2CCCC2)cc1	inconclusive: 29.1 µM [activator, single point]	–
Cc1nn(C)c(C(=O)Sc2cccc(Cl)c2)c1[N+](=O)[O-]	–	inactive: 2.96%
COCC(C)n1c(C)cc(C(=O)COC(=O)c2n[nH]c3ccccc23)c1C (stereo unspecified)	inconclusive: 1.84 µM [activator, full curve]	–
COc1cccc(NC(=O)c2cc(-c3ccncc3)nc3c(C)cc(C)cc23)c1	inconclusive: 18.3 µM [inhibitor, single point]	–
C=CCNc1cnn(-c2ccc(C)cc2)c(=O)c1Cl	inconclusive: 9.2 µM [activator, partial curve]	–

Grouped by structure, those above containing a CF3 group.
Compound	Potency	activity change, negative = inhibition
CCOC(=O)/C=C1\CN(Cc2cc(OC)c(OC)c(OC)c2)S(=O)(=O)c2ccc(C(F)(F)F)cc21	inconclusive: 29.1 µM [inhibitor, single point]	–
N#CCCN(C(=O)CSc1nc2nc(-c3cccs3)cc(C(F)(F)F)c2c(=O)[nH]1)c1ccccc1	inconclusive: 29.1 µM [inhibitor, single point]	–
COc1cccc(OCCNC(=O)CSc2ccc(C(F)(F)F)cc2[N+](=O)[O-])c1	–	inactive: 3.42%
Cc1cc(C)c2nc(C(F)(F)F)c(C#N)c(N)c2c1	inconclusive: 2.31 µM [inhibitor, full curve]	–
Cc1cc(C(F)(F)F)nn1Cc1n[nH]c(=S)n1-c1cccc(Cl)c1	–	inactive: 14%

(list continues)

Compound	Potency	activity change, negative = inhibition
CC1CCC2(CC1)Nc1ccccc1C(=O)N2c1ccccc1 (stereo unspecified)	inconclusive: 13 µM [activator, partial curve]	–
CCCc1ccc(Oc2cn[nH]c2-c2ccc(O)c(C)c2O)cc1	–	inactive: -4.59%
CN(Cc1ccccc1)C(=O)COc1ccccc1	inconclusive: 18.4 µM [activator, partial curve]	–
O=C1C(C=Nc2ccccc2O)=C(O)c2ccccc21	inconclusive: 2.59 µM [activator, full curve]	–
CSCC(C)N1CCC(CO)(CCCc2ccccc2)CC1 (stereo unspecified)	–	inactive: -0.616%
CCCCNC(=S)NNC(=O)c1nn(C)cc1Cl	–	inactive: 9.35%
O=C(N/N=C\C=C\c1ccc2c(c1)OCO2)c1cccnc1	inconclusive: 25.9 µM [activator, single point]	–
Cc1sc2nc(CN(Cc3cccs3)C(=O)C3CC3)[nH]c(=O)c2c1C	inconclusive: 12.6 µM [inhibitor, single point]	–
O=c1[nH]c(C2CCN(S(=O)(=O)c3ccccc3)CC2)nc2c1nnn2Cc1ccccc1	–	inactive: 1.14%
CC(C(=O)NCC1CCCCC1)N(C)Cc1cccc(Cl)c1 (stereo unspecified)	inconclusive: 29.1 µM [inhibitor, single point]	–
CCOC(=O)C1=C(C)NC(C)=C(C(=O)OCC)C1C(=O)OCC(=O)NCc1ccco1	active: 10.3 µM	–
CSCC[C@H](NC(=O)OC(C)(C)C)c1nnc(SCC(N)=O)o1	–	inactive: 3.24%
N#Cc1ccc(C(=O)NCC(c2ccco2)N2CCCCC2)cc1 (stereo unspecified)	–	inactive: 0.734%
Cc1ccc(C)c(NC(=O)Cn2nnc(C(=O)NCc3cccs3)c2N)c1	inconclusive: 32.6 µM [activator, single point]	–
CC(=O)Nc1ccccc1NC(=O)C/C(C)=N/NC(=O)c1cccnc1	–	inactive: 18.2%
O=C(OCn1nnc2ccccc2c1=O)c1ccco1	inconclusive: 1.46 µM [activator, full curve, poor fit]	–
O=C1CCC(=O)N1CCSC(=S)N1CCSCC1	inconclusive: 29.1 µM [activator, single point]	–
CCOc1ccccc1Nc1nc(-c2sc(C)nc2C)cs1	inconclusive: 32.6 µM [inhibitor, partial curve, poor fit]	–
Nc1nc(COc2ccccc2)cs1	inconclusive: 23.1 µM [activator, partial curve]	–
Cc1csc(NC(=O)c2cccc(S(=O)(=O)N3CCN(C)CC3)c2)n1	inconclusive: 0.82 µM [inhibitor, partial curve, poor fit]	–
O=C(NCC(c1cccs1)N1CCOCC1)c1cn(-c2ccccc2)nc1-c1ccccc1 (stereo unspecified)	inconclusive: 23.1 µM [inhibitor, single point]	–
NS(=O)(=O)c1cccc(NC(=O)COC(=O)CCC(=O)c2cccs2)c1	–	inactive: 6.64%
Cc1ccc(-n2c(O)c(C=NCc3ccccn3)c3ccccc3c2=O)cc1C	inconclusive: 23.1 µM [inhibitor, single point]	–

Reference: PubChem BioAssay AID504467 (National Center for Advancing Translational Sciences (NCATS), 2011)
